Assay results taken from doi:10.1101/2023.02.03.527063 (bioRxiv, 2023).

Protein sequences, listed by entry. Tags and fused reporters are not part of them.
UniProt Q969G3: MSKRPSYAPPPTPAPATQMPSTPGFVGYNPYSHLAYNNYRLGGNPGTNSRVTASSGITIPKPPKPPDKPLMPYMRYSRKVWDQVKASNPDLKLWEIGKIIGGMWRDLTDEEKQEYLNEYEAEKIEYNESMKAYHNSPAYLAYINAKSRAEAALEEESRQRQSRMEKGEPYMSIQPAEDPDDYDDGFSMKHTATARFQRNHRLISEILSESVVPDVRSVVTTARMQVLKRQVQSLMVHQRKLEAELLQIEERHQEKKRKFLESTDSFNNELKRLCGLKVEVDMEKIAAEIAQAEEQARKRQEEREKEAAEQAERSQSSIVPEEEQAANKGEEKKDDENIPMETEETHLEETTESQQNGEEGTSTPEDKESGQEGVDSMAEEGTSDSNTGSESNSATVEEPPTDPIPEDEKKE
UniProt Q12824: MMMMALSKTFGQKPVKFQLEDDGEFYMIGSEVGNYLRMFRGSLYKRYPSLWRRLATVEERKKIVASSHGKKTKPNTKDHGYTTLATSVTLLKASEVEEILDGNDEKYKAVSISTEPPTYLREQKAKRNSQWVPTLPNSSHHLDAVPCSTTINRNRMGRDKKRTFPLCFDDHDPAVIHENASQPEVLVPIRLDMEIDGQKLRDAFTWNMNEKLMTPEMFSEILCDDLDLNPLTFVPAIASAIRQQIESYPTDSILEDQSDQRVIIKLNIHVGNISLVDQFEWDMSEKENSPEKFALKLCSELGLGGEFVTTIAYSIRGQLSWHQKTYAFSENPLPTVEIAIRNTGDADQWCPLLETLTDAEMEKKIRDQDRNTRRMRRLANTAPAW
UniProt Q92925: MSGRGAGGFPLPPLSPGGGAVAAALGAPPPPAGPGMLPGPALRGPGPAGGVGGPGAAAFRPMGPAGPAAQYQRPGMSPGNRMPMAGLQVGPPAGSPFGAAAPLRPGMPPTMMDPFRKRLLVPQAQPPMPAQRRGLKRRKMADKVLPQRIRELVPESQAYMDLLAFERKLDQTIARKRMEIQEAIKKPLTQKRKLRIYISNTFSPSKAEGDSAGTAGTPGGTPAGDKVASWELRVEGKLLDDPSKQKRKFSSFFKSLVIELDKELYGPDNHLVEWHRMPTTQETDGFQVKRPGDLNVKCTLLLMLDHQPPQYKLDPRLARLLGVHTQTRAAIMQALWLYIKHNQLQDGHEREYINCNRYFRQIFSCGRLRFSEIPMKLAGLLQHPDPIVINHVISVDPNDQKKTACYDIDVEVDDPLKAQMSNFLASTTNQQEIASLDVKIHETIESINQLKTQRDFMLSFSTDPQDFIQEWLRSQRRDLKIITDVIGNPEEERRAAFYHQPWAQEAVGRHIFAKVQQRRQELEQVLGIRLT
UniProt Q8TAQ2: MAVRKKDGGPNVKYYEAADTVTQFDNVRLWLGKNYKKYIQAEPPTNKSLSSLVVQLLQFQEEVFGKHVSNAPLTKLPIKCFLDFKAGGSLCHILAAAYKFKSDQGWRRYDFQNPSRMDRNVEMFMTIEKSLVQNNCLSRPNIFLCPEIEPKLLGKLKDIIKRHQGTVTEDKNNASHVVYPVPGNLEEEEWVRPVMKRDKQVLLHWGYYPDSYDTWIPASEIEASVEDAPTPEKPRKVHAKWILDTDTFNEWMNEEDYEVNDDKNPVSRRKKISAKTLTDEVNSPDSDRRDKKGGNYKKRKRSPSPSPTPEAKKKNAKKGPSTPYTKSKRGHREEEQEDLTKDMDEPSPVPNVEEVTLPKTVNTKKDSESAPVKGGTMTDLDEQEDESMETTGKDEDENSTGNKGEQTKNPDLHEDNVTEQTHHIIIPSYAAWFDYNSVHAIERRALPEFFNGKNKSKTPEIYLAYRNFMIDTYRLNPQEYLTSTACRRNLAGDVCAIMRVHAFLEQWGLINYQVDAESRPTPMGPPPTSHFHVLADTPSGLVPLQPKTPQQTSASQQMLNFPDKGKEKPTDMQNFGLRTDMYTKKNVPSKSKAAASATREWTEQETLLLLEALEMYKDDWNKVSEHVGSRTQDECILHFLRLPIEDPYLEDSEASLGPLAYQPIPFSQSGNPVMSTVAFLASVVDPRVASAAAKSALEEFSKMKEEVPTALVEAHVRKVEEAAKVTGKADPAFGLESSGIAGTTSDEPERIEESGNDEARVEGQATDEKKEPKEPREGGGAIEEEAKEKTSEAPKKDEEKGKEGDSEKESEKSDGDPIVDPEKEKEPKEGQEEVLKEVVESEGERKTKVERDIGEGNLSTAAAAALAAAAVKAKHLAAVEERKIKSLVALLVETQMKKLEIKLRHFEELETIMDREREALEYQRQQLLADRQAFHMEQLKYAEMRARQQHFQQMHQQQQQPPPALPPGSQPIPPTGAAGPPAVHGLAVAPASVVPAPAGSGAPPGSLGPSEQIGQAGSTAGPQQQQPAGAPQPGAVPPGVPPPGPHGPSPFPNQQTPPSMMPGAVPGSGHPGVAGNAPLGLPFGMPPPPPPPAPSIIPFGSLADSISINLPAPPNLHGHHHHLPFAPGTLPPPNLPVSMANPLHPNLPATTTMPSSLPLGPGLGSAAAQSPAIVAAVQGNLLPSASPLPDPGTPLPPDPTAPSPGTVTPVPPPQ
UniProt Q92922: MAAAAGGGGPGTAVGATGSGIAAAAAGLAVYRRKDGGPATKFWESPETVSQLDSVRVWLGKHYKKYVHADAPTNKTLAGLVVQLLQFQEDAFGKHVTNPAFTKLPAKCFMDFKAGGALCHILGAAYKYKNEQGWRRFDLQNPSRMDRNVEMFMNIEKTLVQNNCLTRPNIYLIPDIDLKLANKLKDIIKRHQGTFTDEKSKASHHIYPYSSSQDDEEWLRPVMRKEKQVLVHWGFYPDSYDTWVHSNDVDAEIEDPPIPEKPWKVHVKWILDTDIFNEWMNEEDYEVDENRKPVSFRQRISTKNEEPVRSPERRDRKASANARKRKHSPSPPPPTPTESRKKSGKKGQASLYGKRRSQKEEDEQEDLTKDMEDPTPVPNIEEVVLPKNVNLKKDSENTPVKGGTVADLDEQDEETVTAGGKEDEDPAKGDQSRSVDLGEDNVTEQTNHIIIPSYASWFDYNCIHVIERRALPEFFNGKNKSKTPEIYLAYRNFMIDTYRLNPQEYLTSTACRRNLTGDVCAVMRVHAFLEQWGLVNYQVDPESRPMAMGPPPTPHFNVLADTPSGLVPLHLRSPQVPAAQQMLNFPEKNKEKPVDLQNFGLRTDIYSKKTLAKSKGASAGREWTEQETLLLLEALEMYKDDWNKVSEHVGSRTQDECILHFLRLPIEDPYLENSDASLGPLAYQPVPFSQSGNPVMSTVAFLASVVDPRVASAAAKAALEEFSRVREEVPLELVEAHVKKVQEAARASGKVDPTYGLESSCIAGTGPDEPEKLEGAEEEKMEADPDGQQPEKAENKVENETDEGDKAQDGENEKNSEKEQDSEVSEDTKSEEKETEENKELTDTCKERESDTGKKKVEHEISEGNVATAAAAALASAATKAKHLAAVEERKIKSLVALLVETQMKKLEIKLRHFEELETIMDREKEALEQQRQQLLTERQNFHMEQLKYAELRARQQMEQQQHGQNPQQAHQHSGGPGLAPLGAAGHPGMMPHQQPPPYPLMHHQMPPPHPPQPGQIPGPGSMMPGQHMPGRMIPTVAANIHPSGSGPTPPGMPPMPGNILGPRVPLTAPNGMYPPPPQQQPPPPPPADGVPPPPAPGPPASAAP

Target: T1, Pregnane X receptor (PXR) in ShP51 cells (human) (UniProt O75469)
T1 sequence: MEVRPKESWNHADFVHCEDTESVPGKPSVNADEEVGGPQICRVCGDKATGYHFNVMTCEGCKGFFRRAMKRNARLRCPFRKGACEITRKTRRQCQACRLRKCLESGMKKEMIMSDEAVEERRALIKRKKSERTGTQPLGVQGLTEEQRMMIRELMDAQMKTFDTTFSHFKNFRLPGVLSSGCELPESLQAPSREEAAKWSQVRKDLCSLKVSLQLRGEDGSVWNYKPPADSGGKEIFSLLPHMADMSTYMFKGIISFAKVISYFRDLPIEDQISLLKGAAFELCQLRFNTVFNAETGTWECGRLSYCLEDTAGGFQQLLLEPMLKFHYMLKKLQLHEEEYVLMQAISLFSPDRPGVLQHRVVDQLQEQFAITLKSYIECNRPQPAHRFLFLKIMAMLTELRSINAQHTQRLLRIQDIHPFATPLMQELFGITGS
Assay: affinity purification with mass spectrometry

Row | Substance | binding
1 | BAF57 (from UniProt Q969G3 1-411) | binds
2 | BAF47 (from UniProt Q12824 1-385) | binds
3 | BAF60B (from UniProt Q92925 1-531) | binds
4 | BAF170 (from UniProt Q8TAQ2 1-1214) | binds
5 | BAF155 (from UniProt Q92922 1-1105) | binds

Results are given in words; binding and its absence hold for the method and conditions named. In cells and extracts the contact can be indirect. These calls come from enrichment with a bait or labelling near it, and not all partners need be listed.
